Assay results from article PMC7817668.
Results are given in words; binding and its absence hold for the method and conditions named. In cells and extracts the contact can be indirect. Some entries that bind do so weakly or less than the wild type.

The chains behind the UniProt entries cited, without tags or fusion partners.
UniProt O60238: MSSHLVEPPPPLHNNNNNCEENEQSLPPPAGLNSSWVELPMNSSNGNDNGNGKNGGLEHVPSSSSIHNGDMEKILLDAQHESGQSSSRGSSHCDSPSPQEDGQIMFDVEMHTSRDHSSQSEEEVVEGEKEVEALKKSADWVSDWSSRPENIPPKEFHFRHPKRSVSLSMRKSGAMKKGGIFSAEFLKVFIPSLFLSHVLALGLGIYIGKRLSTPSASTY
UniProt O60260: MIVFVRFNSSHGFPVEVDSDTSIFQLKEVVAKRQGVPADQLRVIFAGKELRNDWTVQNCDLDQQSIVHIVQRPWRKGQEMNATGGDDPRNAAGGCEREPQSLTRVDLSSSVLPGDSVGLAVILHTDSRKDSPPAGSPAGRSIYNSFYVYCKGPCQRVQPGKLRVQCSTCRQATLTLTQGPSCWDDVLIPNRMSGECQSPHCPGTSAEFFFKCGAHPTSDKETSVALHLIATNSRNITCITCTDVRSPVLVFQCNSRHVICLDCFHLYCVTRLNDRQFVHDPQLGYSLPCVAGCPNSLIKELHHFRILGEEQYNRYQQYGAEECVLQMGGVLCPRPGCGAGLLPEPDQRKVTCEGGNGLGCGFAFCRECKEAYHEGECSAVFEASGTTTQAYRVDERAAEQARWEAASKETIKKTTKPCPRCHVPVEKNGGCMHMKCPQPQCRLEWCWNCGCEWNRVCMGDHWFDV

Target: BNIP3-like (BNIP3L)/NIX (human (endogenous in SH-SY5Y)) (UniProt O60238)
Assay: co-IP; primary antibody immobilised on SureBeads protein G magnetic beads, incubated with total cell lysate (300 ug) at 4 °C overnight; western blot; SH-SY5Y cells with nontargeting or PARK2 siRNA for 24 h, then cortisol for 24 h

binding: binds
Substance: parkin (from UniProt O60260 1-465)
